Laboratory results: the supplement of paper PMC8732350
“And” between values parts separate entries of the source, which are not always exact repeats. Equal values may be shown once. Where a name gives a salt, the structure may show the parent alone. ± gives the standard deviation of the averaged measurements. The list shows a part of the results. Most values lie within the scatter of the assay; repeated measurements hardly agree.

What follows are compounds tested on A549 (assay: surface PD-L1 immunofluorescence intensity relative to IFN-gamma-only control (ratio); higher = more PD-L1 expression). Conditions: 10 µM; exposure time 24 h; IFN-gamma 100 ng/mL.

SMILES	surface PD-L1 immunofluorescence intensity
O=S(=O)(O)CCSSCCS(=O)(=O)O [Dimesna]	0.993
CCCC(C(=O)OCCN(CC)CC)(c1ccccc1)c1ccccc1 [Proadifen hydrochloride]	1.04
NC[C@H]1CC[C@H](C(=O)O)CC1 [Tranexamic acid]	0.953
C=CCc1ccccc1OCC(O)CNC(C)C (stereo unspecified) [Alprenolol hydrochloride]	0.897
CC(=O)OC(C)C[N+](C)(C)C (stereo unspecified) [Methacholine chloride]	0.98
CCCCOc1ccc(CC(=O)NO)cc1 [Bufexamac]	0.844
CCCCC[C@H](CC(=O)NO)C(=O)N[C@H](C(=O)N1CCC[C@H]1CO)C(C)C [Actinonin]	0.875
Cc1ccc(O)c([C@H](CCN(C(C)C)C(C)C)c2ccccc2)c1 [Tolterodine tartrate (Detrol LA)]	0.824
CCN1/C(=C/C(C)=O)Sc2ccc(OC)cc21	0.962
C/N=C(/NC#N)NCCSCc1csc(NC(=N)N)n1 [Tiotidine]	0.843
Cc1c(CC(C)(C)C(=O)O)n(Cc2ccc(Cl)cc2)c2ccc(F)cc12	1.02
CS(=O)(=O)c1ccc(Cn2c3c(c4cc(F)cc(F)c42)CCCC3CC(=O)O)cc1 (stereo unspecified)	0.913
O=C(O)c1cc(=O)c2c(OCC(O)COc3cccc4oc(C(=O)O)cc(=O)c34)cccc2o1 [Cromolyn disodium salt]	0.966
CCOc1ccc(Cc2cc([C@@H]3O[C@H](CO)[C@@H](O)[C@H](O)[C@H]3O)ccc2Cl)cc1 [Dapagliflozin]	1.04
CCCCCCCCCC(=O)N[C@@H](CCCN=C(N)N)C(=O)N[C@H](C(=O)N[C@@H](CCCCN)C(=O)N[C@@H](CCCN=C(N)N)C(=O)CCl)C(C)C	0.905
O=c1cc(CN2CCOCC2)occ1OCCCCCSc1ccnc2cc(C(F)(F)F)ccc12	0.978
O=[N+]([O-])c1cc(Cl)ccc1S(=O)(=O)N1CCN(Cc2ccccc2)CC1	0.976
CSCCC(C=O)NC(=O)C(CC(C)C)NC(=O)[C@H](CC(C)C)NC(C)=O (stereo partly specified) [Calpain Inhibitor II (ALLM)]	0.868
CCCCc1nn(-c2ccccc2C(F)(F)F)c(=O)n1Cc1ccc(-c2ccccc2S(=O)(=O)NC(=O)c2sccc2C)cc1	1.04
CN(C)CCC(c1ccccc1)c1ccccn1 (stereo unspecified) [Pheniramine maleate]	0.877
CCOc1nc2cccc(C(=O)OC(C)OC(=O)OC3CCCCC3)c2n1Cc1ccc(-c2ccccc2-c2nn[nH]n2)cc1 (stereo unspecified) [Candesartan cilexetil (Atacand)]	1.07
Clc1ccc(-c2nc3sccn3c2/C=N/OCc2ccc(Cl)c(Cl)c2)cc1	1.03 ± 0.013
CCN1CCC[C@H]1CNC(=O)c1cc(S(N)(=O)=O)ccc1OC [Levosulpiride (Levogastrol)]	1.04
Nc1ccc(S(N)(=O)=O)cc1 [Sulfanilamide]	1.03
COc1cc2ncnc(Nc3ccc(Oc4ccccc4)cc3)c2cc1OC	0.96
CC1CCN(CCCC(=O)c2ccc(F)cc2)CC1 [Melperone hydrochloride]	0.984

Part of the list above in order of formula weight, high to low.
SMILES	surface PD-L1 immunofluorescence intensity
O=c1cc(CN2CCOCC2)occ1OCCCCCSc1ccnc2cc(C(F)(F)F)ccc12	0.978
CCOc1ccc(Cc2cc([C@@H]3O[C@H](CO)[C@@H](O)[C@H](O)[C@H]3O)ccc2Cl)cc1 [Dapagliflozin]	1.04
NC[C@H]1CC[C@H](C(=O)O)CC1 [Tranexamic acid]	0.953

Continued:

SMILES	surface PD-L1 immunofluorescence intensity
CC1=C(C(=O)OCCN(Cc2ccccc2)c2ccccc2)C(c2cccc([N+](=O)[O-])c2)C(P2(=O)OCC(C)(C)CO2)=C(C)N1 (stereo unspecified) [Efonidipine hydrochloride monoethanolate]	1.02
C1CCC2(CC1)CCNCC2 [4,4-Pentamethylenepiperidine hydrochloride]	1
CCCNS(=O)(=O)Nc1ncnc(OCCOc2ncc(Br)cn2)c1-c1ccc(Br)cc1 [Macitentan]	1.1
CC(CCc1ccc(O)cc1)NCCc1ccc(O)c(O)c1 (stereo unspecified) [Dobutamine hydrochloride]	1.09 ± 0.082
CC(O)(C(=O)Nc1ccc(S(=O)(=O)c2ccccc2)cc1)C(F)(F)F (stereo unspecified)	0.98 and 0.885
CSc1ccc(/C=C2/C(C)=C(CC(=O)O)c3cc(F)ccc32)cc1 [Sulindac Sulfide]	1.03
CC(C)N(CCC(=O)c1ccc2ccccc2c1)Cc1ccccc1	0.985 and 0.972
CC(C)(C)C#Cc1cc(N(C(=O)[C@H]2CC[C@H](C)CC2)[C@H]2CC[C@H](O)CC2)c(C(=O)O)s1	1
CCOC(=O)c1ccc(C#Cc2ccc3c(c2)C(C)(C)CCS3)nc1 [Tazarotene (Avage)]	1.08
CCC(C)(C)c1ccc(CC(C)CN2C[C@@H](C)O[C@@H](C)C2)cc1 (stereo partly specified) [Amorolfine HCl]	0.962
CC[C@]12CCCN3CCc4c(n(c5ccccc45)[C@@](O)(C(=O)OC)C1)[C@@H]32 [Vincamine]	0.863
CC(=C(CCO)SSCC1CCCO1)N(C=O)Cc1cnc(C)nc1N (stereo in doubt) [Fursultiamine Hydrochloride]	0.986
CCC(C)(CN(C)C)OC(=O)c1ccccc1 (stereo unspecified) [Amyleine hydrochloride]	0.874
Cn1c(=O)c2c(ncn2CC(O)CO)n(C)c1=O (stereo unspecified) [Diprophylline]	0.845
CCCc1nc(C(C)(C)O)c(C(=O)OCc2oc(=O)oc2C)n1Cc1ccc(-c2ccccc2-c2nnn[nH]2)cc1 [Olmesartan medoxomil (Benicar)]	1.1
NC(=O)c1cccnc1 [Nicotinamide]	1.03 ± 0.078
CNC1(C)C2CCC(C2)C1(C)C (stereo unspecified) [Mecamylamine hydrochloride]	0.976
Cc1c(Cn2c(C)nc3c(C(=O)O)cc(N4CCOCC4)cc32)cccc1C(F)(F)F	1.02 ± 0.044
COc1ccc(CNCc2cccc3ccccc23)cc1	0.97
NC(=O)[C@@H](CCC(F)(F)F)N(Cc1ccc(-c2ncon2)cc1F)S(=O)(=O)c1ccc(Cl)cc1	1.09
CC1=C(C(=O)O)N2C(=O)[C@@H](NC(=O)[C@H](N)c3ccc(O)cc3)[C@H]2SC1 [Cefadroxil]	1.03
C[C@@]1(O)[C@H](O)[C@@H](CO)O[C@H]1n1cnc2c(NC3CCCC3)nc(Cl)nc21	1.01
CC(C)c1onc(-c2c(Cl)cccc2Cl)c1COc1ccc(/C=C/c2cccc(C(=O)O)c2)c(Cl)c1	1.08 and 1.07
C=CCN1CCCC1CNC(=O)c1cc2nn[nH]c2cc1OC (stereo unspecified) [Alizapride HCl]	0.938
N[C@@H](CSS(=O)(=O)O)C(=O)O [S-Sulfo-L-cysteine sodium salt]	1.14
